This note sets out measurements from article PMC4266925.

The chains behind the UniProt entries cited, without tags or fusion partners.
UniProt Q03164: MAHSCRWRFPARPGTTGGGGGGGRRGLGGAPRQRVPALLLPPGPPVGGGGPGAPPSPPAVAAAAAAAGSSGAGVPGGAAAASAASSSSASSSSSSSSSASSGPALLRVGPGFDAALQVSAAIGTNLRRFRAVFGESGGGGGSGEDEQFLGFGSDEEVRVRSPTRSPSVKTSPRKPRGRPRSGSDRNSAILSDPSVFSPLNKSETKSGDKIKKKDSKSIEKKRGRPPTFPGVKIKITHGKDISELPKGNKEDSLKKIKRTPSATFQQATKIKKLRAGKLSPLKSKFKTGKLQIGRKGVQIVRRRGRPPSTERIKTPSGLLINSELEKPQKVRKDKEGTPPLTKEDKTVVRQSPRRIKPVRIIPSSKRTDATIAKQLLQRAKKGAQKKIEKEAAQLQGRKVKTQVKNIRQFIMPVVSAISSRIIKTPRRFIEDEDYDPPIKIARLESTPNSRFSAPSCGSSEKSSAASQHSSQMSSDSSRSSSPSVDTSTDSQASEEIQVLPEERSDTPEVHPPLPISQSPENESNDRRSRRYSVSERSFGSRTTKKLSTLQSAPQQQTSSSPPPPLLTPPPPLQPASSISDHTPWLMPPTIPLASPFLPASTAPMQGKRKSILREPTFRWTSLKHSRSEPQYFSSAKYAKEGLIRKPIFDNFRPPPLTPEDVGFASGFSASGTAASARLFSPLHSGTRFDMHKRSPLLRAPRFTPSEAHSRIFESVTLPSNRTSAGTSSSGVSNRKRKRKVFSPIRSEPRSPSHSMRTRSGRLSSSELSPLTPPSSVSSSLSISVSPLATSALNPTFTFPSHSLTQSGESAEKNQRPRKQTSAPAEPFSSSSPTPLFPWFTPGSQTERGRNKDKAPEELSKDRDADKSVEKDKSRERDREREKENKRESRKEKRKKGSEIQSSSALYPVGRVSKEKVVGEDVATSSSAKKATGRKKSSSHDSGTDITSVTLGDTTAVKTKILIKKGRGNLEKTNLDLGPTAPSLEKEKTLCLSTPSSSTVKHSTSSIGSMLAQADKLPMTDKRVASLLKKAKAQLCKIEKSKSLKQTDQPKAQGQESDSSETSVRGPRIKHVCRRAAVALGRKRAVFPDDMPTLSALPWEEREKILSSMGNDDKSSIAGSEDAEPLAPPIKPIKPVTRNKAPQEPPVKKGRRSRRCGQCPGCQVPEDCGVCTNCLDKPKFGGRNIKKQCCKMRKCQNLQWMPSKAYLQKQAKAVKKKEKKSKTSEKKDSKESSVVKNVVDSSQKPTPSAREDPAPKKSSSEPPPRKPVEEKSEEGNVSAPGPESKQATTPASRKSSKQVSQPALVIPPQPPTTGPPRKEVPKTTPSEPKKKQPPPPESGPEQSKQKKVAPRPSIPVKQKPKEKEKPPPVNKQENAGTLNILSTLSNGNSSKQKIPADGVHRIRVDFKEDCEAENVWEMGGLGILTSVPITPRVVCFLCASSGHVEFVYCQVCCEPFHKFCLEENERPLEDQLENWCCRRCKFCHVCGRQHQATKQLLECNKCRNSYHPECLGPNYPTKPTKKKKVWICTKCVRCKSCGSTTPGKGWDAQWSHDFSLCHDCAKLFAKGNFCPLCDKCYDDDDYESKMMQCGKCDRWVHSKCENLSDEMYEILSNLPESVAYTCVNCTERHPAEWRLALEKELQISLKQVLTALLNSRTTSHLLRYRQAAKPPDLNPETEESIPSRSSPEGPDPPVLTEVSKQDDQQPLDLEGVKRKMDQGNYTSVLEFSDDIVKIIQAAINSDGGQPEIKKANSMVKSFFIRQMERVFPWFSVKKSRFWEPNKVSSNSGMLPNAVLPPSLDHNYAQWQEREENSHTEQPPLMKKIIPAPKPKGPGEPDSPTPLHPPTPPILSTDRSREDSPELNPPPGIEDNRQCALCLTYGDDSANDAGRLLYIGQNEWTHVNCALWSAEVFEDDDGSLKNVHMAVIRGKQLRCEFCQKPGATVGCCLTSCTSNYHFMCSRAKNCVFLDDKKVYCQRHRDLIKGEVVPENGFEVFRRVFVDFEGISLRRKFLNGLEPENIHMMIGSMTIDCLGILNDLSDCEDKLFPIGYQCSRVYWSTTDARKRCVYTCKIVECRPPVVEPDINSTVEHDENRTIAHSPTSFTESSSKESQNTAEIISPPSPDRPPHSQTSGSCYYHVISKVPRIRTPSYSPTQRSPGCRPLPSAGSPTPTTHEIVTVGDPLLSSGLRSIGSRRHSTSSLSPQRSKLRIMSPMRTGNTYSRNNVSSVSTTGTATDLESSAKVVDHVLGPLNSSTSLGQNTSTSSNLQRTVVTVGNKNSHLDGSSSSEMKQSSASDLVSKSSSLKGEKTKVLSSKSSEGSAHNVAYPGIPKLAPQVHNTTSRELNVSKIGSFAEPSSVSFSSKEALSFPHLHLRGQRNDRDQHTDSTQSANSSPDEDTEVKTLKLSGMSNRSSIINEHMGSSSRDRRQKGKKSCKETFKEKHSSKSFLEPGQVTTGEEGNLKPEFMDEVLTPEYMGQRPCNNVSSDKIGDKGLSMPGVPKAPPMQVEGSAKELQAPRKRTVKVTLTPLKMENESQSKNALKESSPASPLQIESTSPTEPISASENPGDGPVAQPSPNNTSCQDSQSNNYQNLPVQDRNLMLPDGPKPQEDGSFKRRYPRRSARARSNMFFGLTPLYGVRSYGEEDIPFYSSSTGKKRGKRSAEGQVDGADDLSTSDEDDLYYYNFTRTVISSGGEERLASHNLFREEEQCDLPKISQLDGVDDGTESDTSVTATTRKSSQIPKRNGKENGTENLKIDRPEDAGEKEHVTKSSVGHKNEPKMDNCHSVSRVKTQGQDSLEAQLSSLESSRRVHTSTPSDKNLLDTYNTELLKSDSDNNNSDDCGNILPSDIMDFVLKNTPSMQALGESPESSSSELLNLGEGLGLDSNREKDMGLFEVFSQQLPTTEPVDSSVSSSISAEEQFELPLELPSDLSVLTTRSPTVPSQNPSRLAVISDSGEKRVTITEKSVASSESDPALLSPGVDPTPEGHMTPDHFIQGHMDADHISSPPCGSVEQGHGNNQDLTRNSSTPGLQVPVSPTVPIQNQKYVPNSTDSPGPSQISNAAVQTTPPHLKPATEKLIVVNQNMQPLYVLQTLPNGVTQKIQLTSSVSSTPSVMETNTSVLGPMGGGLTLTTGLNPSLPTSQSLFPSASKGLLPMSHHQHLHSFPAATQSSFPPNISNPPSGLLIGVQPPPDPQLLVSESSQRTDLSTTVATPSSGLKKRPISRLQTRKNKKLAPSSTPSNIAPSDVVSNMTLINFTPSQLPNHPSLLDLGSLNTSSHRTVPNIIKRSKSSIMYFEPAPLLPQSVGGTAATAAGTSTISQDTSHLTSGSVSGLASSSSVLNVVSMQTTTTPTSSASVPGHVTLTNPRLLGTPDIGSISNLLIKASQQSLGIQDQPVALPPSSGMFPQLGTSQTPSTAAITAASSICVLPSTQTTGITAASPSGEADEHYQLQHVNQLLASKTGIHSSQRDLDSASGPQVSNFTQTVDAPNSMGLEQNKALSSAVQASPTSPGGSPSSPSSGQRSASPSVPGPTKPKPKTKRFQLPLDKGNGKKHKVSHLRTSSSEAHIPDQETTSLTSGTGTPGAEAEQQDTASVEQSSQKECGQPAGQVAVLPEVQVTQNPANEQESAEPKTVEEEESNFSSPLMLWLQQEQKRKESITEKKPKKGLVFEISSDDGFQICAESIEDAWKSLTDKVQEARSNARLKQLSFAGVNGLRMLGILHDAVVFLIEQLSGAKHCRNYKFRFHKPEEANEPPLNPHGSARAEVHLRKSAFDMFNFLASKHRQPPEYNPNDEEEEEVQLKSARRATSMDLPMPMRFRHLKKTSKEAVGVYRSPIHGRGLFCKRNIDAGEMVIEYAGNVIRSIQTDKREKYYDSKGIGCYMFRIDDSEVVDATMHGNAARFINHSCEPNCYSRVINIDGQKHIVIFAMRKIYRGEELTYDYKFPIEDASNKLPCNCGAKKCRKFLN
UniProt P03372: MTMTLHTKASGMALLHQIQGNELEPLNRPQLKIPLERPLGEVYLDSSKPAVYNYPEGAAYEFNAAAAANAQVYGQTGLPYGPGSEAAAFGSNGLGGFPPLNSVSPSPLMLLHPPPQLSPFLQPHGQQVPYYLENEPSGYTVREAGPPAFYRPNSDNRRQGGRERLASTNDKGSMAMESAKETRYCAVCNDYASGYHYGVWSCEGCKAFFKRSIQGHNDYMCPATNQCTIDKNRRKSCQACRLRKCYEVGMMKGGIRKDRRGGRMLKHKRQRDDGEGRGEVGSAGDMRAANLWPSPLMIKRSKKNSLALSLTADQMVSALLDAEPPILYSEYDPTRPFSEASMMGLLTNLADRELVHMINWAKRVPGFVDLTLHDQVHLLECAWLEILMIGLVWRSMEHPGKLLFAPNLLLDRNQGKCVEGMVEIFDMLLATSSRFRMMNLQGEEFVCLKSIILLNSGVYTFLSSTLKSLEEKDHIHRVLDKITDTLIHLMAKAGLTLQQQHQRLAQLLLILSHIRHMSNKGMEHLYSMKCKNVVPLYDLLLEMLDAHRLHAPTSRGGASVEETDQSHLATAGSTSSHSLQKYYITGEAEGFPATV

Results are given in words; binding and its absence hold for the method and conditions named. Binding seen in cells or lysates may run through a third protein. Some results given as binding are weak or reduced against the parent protein; the word gives no strength.

The target of the test is mixed lineage leukaemia histone methylase 1 (human (endogenous in HL-60)) (UniProt Q03164). As to the kind of experiment: co-IP; nuclear extracts of HL-60 cells, untreated or treated with 100 nM E2 (6 h in methods, 8 h in results); incubated overnight at 4°C with MLL1 antibody on protein G agarose beads; washed with buffer C (20 mM Tris/HCl pH 7.9, 5 mM MgCl2, 420 mM KCl, 0.5 mM DTT) with 0.1% NP40; eluted with 0.2 M glycine pH 2.9; Western blot for ERα. On the technique in general: Immunoblotting shows a protein as a band on a membrane.

For “oestrogen receptor α (from UniProt P03372 1-595)”, the binding result is reported as “binds”.
